Source: the supplement of paper PMC10849652
Some of the results follow.

Protein sequences, listed by entry. Tags and fused reporters are not part of them. Lines headed by an entry give the natural chain unless they say otherwise; changes in a name come on top.
UniProt P30520: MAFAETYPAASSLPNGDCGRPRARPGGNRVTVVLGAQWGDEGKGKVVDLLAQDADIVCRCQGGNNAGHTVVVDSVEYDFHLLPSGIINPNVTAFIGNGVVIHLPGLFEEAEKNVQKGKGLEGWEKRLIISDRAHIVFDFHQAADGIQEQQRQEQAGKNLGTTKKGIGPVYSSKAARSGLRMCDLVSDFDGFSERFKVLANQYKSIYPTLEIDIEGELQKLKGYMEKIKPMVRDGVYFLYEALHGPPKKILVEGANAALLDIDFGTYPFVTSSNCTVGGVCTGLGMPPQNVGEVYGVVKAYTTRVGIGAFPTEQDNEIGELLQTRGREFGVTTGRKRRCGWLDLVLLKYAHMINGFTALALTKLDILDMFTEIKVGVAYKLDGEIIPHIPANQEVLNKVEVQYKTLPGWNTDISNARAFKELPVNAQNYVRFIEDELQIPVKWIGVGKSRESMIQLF
UniProt P55196: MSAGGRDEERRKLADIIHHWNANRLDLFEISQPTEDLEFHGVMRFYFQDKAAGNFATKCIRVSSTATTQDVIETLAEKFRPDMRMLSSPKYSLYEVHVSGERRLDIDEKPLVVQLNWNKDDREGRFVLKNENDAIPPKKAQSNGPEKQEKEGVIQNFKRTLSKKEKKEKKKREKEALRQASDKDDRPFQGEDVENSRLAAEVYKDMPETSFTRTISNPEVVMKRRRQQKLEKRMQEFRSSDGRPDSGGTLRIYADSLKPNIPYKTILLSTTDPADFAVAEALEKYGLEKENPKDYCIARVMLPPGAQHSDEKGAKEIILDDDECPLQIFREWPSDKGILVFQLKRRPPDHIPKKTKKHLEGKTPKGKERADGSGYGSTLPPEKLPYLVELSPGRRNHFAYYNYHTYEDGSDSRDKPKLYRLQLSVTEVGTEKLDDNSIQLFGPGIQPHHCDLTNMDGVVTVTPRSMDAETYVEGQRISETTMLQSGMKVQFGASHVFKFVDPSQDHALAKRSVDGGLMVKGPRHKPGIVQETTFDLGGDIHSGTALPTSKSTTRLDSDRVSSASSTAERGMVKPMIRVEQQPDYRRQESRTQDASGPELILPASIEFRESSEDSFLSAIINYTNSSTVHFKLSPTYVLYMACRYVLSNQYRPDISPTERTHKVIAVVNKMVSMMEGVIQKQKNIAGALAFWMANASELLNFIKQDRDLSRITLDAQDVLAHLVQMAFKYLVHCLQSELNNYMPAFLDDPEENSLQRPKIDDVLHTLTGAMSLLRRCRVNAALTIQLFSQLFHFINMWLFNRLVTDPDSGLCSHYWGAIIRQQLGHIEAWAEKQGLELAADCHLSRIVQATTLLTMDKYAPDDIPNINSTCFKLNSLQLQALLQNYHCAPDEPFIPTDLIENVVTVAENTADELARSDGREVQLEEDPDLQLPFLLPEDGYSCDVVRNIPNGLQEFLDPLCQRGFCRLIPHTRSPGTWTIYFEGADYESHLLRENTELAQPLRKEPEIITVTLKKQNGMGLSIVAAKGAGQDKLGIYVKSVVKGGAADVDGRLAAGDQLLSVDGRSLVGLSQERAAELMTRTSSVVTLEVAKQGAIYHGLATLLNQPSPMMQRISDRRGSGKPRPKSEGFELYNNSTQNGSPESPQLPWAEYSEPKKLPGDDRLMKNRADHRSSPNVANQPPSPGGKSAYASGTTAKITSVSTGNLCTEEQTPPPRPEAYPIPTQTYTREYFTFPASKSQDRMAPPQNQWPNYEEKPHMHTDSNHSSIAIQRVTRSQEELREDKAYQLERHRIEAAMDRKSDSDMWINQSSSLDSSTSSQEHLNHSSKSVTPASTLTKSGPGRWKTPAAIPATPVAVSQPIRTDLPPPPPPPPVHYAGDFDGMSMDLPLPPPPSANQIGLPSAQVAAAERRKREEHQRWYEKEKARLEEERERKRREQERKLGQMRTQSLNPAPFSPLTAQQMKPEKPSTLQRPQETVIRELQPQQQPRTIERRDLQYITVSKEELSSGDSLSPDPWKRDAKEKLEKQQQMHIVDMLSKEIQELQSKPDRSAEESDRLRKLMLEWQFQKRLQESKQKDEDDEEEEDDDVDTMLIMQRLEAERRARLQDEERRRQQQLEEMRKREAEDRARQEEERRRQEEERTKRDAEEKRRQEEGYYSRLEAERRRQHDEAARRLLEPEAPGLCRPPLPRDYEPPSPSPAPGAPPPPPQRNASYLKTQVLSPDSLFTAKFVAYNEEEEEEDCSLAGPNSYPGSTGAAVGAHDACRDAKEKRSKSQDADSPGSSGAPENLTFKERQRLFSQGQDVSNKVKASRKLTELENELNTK
UniProt Q96A54: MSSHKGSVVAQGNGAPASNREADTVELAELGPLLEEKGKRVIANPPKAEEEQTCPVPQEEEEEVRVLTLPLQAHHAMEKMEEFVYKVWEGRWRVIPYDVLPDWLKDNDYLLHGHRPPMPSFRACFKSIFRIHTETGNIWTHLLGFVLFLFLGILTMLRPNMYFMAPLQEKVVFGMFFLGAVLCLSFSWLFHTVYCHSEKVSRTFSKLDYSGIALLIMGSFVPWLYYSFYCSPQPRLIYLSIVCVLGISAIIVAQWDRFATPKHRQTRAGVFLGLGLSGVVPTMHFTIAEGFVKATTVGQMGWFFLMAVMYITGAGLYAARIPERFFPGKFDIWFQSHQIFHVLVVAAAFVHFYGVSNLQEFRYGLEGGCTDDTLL
UniProt P30566: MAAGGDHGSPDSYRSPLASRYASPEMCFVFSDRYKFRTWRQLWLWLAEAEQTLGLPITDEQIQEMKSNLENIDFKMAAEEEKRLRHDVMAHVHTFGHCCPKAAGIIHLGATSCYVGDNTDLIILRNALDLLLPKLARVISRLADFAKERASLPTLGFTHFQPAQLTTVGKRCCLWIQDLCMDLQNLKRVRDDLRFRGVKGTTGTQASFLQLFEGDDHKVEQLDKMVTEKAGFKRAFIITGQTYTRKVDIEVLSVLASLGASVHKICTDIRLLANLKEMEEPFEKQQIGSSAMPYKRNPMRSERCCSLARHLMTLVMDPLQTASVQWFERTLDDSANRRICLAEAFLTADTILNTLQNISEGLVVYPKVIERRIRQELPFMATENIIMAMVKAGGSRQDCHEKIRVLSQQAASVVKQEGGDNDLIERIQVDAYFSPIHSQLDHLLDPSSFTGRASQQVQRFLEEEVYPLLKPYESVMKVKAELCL
UniProt Q9UM13, whole entry, looked up: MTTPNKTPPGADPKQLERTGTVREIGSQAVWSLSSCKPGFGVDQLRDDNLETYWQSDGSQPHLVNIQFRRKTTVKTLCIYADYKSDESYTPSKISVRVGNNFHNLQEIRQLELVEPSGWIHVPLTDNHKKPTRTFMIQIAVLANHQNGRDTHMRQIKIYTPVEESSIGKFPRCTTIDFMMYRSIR
UniProt Q9UKV8, whole entry, looked up: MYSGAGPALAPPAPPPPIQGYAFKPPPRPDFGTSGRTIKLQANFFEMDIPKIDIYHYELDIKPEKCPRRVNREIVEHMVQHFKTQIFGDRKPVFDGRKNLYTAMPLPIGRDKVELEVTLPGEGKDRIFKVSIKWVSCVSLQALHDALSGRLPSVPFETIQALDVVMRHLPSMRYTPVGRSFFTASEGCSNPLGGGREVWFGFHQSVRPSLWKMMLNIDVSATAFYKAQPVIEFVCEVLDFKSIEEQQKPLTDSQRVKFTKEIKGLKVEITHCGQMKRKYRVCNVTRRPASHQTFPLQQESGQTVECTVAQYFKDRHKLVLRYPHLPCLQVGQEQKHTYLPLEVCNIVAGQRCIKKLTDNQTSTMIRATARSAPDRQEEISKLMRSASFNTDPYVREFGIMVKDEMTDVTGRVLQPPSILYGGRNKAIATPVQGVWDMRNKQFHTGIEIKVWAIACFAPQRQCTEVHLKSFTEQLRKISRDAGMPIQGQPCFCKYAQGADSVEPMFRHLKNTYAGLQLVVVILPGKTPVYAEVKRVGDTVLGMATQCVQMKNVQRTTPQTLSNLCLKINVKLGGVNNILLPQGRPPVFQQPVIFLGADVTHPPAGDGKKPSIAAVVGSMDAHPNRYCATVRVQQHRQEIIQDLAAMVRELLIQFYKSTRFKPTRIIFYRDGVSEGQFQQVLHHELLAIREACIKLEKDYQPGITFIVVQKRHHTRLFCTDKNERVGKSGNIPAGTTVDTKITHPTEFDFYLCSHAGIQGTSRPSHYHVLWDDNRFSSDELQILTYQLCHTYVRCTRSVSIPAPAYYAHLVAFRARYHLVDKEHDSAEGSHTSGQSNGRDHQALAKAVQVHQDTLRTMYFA
UniProt Q5I7T1: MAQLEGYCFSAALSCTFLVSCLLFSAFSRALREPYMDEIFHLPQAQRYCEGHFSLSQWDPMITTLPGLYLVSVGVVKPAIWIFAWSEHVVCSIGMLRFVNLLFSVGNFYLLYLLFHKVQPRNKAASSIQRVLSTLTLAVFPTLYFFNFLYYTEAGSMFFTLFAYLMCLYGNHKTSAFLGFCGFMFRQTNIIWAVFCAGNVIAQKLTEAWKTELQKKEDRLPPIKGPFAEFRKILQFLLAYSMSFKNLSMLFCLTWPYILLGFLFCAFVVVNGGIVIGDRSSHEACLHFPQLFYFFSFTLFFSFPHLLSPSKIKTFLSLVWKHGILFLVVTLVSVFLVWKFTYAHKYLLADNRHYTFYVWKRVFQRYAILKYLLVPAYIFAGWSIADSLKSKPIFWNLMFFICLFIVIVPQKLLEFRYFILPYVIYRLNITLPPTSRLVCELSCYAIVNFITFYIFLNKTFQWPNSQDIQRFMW
UniProt P14550: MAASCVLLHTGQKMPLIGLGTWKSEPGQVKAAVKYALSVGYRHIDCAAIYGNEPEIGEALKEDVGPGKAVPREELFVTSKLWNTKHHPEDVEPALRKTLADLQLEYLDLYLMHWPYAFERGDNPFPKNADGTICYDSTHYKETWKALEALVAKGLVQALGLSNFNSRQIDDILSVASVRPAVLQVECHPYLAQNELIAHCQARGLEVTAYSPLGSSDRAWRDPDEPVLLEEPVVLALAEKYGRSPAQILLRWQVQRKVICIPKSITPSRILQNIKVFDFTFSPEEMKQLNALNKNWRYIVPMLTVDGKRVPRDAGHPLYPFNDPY
UniProt Q9BT22: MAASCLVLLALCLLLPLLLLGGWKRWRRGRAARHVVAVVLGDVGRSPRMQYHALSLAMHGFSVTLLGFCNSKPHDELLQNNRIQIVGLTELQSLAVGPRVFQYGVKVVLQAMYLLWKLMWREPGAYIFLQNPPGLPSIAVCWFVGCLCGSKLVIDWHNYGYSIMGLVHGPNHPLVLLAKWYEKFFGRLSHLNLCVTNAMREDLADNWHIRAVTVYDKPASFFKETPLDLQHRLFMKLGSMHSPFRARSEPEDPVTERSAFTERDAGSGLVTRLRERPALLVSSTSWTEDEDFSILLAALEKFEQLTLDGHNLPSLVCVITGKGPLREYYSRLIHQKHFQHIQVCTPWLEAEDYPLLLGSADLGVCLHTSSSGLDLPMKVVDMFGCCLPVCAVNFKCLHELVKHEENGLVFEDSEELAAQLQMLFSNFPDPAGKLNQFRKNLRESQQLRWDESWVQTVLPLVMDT
UniProt Q3SY69: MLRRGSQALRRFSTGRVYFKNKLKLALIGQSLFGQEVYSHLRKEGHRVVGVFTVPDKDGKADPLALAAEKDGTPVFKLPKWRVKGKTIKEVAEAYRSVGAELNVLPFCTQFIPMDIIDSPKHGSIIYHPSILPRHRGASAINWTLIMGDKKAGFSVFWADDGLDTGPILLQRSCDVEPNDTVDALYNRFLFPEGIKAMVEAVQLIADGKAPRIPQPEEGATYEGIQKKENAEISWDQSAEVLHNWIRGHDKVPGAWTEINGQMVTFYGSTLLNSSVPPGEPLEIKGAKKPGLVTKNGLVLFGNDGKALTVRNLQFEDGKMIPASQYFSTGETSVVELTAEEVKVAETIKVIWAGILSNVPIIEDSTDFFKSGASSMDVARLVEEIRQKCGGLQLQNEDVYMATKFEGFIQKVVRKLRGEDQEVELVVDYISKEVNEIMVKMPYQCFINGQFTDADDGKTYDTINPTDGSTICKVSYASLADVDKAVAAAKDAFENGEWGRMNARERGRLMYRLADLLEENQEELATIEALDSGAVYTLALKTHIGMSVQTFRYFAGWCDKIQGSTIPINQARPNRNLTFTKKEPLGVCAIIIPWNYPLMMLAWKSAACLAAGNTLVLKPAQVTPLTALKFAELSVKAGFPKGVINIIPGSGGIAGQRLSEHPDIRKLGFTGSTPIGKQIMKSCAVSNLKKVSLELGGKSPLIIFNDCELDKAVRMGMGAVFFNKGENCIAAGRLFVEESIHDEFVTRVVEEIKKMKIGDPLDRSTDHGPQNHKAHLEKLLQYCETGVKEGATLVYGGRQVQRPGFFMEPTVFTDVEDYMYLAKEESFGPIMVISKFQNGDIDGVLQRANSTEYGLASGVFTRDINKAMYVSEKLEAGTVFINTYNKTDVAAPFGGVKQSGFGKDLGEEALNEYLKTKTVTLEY
UniProt Q6RW13: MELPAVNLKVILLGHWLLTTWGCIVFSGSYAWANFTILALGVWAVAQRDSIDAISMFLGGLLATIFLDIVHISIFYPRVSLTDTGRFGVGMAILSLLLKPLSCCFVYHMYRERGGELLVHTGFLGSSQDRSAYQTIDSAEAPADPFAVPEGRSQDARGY

Experiments:
Assay in all cases: log2 fold change, soluble protein after heating vs DMSO (PISA); higher = thermal stabilisation; K562 cells, 10 uM, 30 min; active = over 0.2 and 3.5 SD of the protein, either way, in both replicates (recomputed)
[1] = compound: CC1=C(C=C(C=C1)NC(=O)C2=CC(=CC=C2)C(C)(C)C#N)NC3=CC4=C(C=C3)N=CN(C4=O)C
Method in brief: (§1)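 K562 cells at 2×10^6 cells/mL were treated with 10 μM compound for 30 min. Aliquots were heated for 3 min across 48°C-58°C, pooled, and extracted in PBS with 0.5% NP-40 at 4°C; soluble protein was the supernatant after 21,000xg for 90 min. Soluble protein was quantified by TMTpro 16plex LC-MS/MS with channel sums equalised, and reported as log2 fold change in thermal stability against DMSO controls, with values from duplicates.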

[2] = compound: CC1=C(C=C(C=C1)NC(=O)C2=CC(=CC=C2)N(C)C)NC(=O)C3=CC=C(C=C3)O
Method in brief: as §1

[3] = compound: CC1=CC=C(C=C1)SC2=C3C=C(SC3=CN=C2)C(=O)N
Method in brief: as §1

[4] = compound: CC1=NC(=CC=C1)C2=C(N=C(N2)C(C)(C)C)C3=CC4=NC=CN=C4C=C3
Method in brief: as §1

[5] = compound: CCCCN(Cc1ccc(C(=O)NO)cc1)C(=O)Nc1ccccc1 [Nexturastat A]
Method in brief: as §1

[6] = compound: CCCS(=O)(=O)Nc1ccc(F)c(C(=O)c2c[nH]c3ncc(-c4ccc(Cl)cc4)cc23)c1F [vemurafenib]
Method in brief: as §1

[7] = compound: CCCS(=O)(=O)Nc1ccc(F)c(C(=O)c2c[nH]c3ncc(Cl)cc23)c1F
Method in brief: as §1

[8] = compound: CCCc1cc(C)[nH]c(=O)c1CNC(=O)c1cc(-c2ccnc(N3CCN(C)CC3)c2)cc2c1cnn2C(C)C
Method in brief: as §1

[9] = compound: CCN(CC)Cc1ccc2cc(COC(=O)Nc3ccc(C(=O)NO)cc3)ccc2c1 [givinostat]
Method in brief: as §1

[10] = compound: CCN(CCCOc1ccc2c(Nc3cc(CC(=O)Nc4cccc(F)c4)[nH]n3)ncnc2c1)CCOP(=O)(O)O [barasertib]
Method in brief: as §1

[11] = compound: CC[C@@H]1C(=O)N(C)c2cnc(Nc3ccc(C(=O)NC4CCN(C)CC4)cc3OC)nc2N1C1CCCC1
Method in brief: as §1

[12] = compound: CC[C@@H]1C(=O)N(C)c2cnc(Nc3ccc(C(=O)N[C@H]4CC[C@H](N5CCN(CC6CC6)CC5)CC4)cc3OC)nc2N1C(C)C [volasertib]
Method in brief: as §1

[13] = compound: CC[C@H](C)N1C=C(C2=C(C=C(C=C21)C3=CN=C(C=C3)N4CCNCC4)C(=O)NCC5=C(C=C(NC5=O)C)C)C
Method in brief: as §1

[14] = compound: CC[C@H](C)[C@@H](C(=O)N[C@@H]([C@@H](C)O)C(=O)N[C@@H](CC(C)C)C(=O)[C@]1(CO1)C)NC(=O)[C@H]([C@@H](C)CC)N(C)C(=O)C [epoxomicin]
Method in brief: as §1

[15] = compound: CCn1c(C(=O)N(C2CC2)C2CC2)cc2c3c(ncn3C)c(Nc3cc(C)n(C)n3)nc21
Method in brief: as §1

[16] = compound: CCn1cc(-c2ccnc3[nH]c(-c4cccc(CN(C)C)c4)cc23)c(-c2ccc(NC(=O)N(C)C)cc2)n1
Method in brief: as §1

[17] = compound: CN(C)CC(=O)Nc1ccc2[nH]c(=O)c3ccccc3c2c1
Method in brief: as §1

[18] = compound: CN(CCOC1=CC=C(C=C1)C[C@H]2C(=O)NC(=O)S2)C3=CC=CC=N3 (racemic) [rosiglitazone]
Method in brief: as §1

[19] = compound: CN1C2=C(C3=C1C(=O)N(N=C3)CC4=CC(=CC=C4)N)SC(=C2)S(=O)C
Method in brief: as §1

[20] = compound: CN1CCC(CNc2ccc3ncc(-c4cccc(OC(F)(F)F)c4)n3n2)CC1
Method in brief: as §1

Measured: log2 fold change

ADSS2 (UniProt P30520)
inactive: [1] 0.037 | [2] 0.001 | [3] 0.011 | [4] 0.025 | [5] -0.117 | [6] 0.012 | [7] -0.014 | [8] -0.046 | [9] -0.027 | [10] 0 | [11] 0.033 | [12] 0.045 | [13] -0.012 | [14] -0.035 | [15] 0.007 | [16] -0.011 | [17] 0.006 | [18] 0.013 | [19] -0.108 | [20] -0.002

AFDN isoform 5 (UniProt P55196)
inactive: [1] -0.031 | [2] -0.049 | [3] 0 | [4] 0.087 | [5] -0.033 | [6] 0.021 | [7] 0.023 | [8] 0.007 | [9] 0.062 | [10] 0.015 | [11] -0.072 | [13] 0.05 | [14] 0.047 | [16] -0.099 | [17] 0.008 | [19] -0.003
active: [12] -0.254 | [20] -0.353

AIDA (UniProt Q96BJ3)
inactive: [1] 0.03 | [2] 0.019 | [3] -0.015 | [4] -0.032 | [5] -0.006 | [6] 0.015 | [7] 0.008 | [8] -0.045 | [9] 0.031 | [10] 0.044 | [11] -0.009 | [12] -0.139 | [13] 0.027 | [14] 0.054 | [15] -0.031 | [16] -0.063 | [17] 0.023 | [18] 0.034 | [19] -0.039 | [20] 0.004

ADIPOR1 (UniProt Q96A54)
inactive: [1] 0.018 | [2] -0.131 | [3] 0.065 | [4] 0.076 | [5] 0.079 | [6] -0.061 | [7] -0.001 | [8] -0.01 | [9] 0.191 | [10] 0.006 | [11] 0.133 | [12] -0.133 | [13] -0.038 | [14] 0.086 | [15] 0 | [17] 0.033 | [18] 0.045 | [19] -0.05

ADSL (UniProt P30566)
inactive: [1] -0.002 | [2] 0.012 | [3] -0.006 | [4] 0.038 | [5] -0.025 | [6] -0.022 | [7] -0.005 | [8] -0.021 | [9] -0.029 | [10] -0.011 | [11] 0.01 | [12] 0.049 | [13] -0.044 | [14] 0.03 | [15] 0.006 | [16] -0.015 | [17] -0.014 | [18] -0.018 | [19] -0.019 | [20] 0

ANAPC10 (UniProt Q9UM13)
inactive: [1] 0.024 | [2] 0.02 | [3] -0.052 | [4] 0.082 | [5] 0.158 | [6] 0.057 | [7] 0.036 | [8] 0.013 | [9] -0.039 | [10] -0.023 | [11] 0.206 | [12] -0.074 | [13] -0.028 | [14] 0.005 | [15] -0.006 | [16] -0.008 | [17] 0.075 | [18] 0.005 | [19] 0.025 | [20] -0.119

AGO2 (UniProt Q9UKV8)
inactive: [1] -0.01 | [2] 0.041 | [3] -0.014 | [4] 0.024 | [5] 0.012 | [6] -0.012 | [7] -0.005 | [8] 0.003 | [9] 0.008 | [10] -0.045 | [11] 0.128 | [12] 0.052 | [13] -0.018 | [14] -0.081 | [15] -0.042 | [16] 0.08 | [17] -0.026 | [18] -0.042 | [19] 0.002 | [20] 0.124

Quoted at random: two records from the list, in no set order.
AFDN isoform 5 (UniProt P55196)
inactive: [1] -0.031 | [2] -0.049 | [3] 0 | [4] 0.087 | [5] -0.033 | [6] 0.021 | [7] 0.023 | [8] 0.007 | [9] 0.062 | [10] 0.015 | [11] -0.072 | [13] 0.05 | [14] 0.047 | [16] -0.099 | [17] 0.008 | [19] -0.003
active: [12] -0.254 | [20] -0.353

ADIPOR1 (UniProt Q96A54)
inactive: [1] 0.018 | [2] -0.131 | [3] 0.065 | [4] 0.076 | [5] 0.079 | [6] -0.061 | [7] -0.001 | [8] -0.01 | [9] 0.191 | [10] 0.006 | [11] 0.133 | [12] -0.133 | [13] -0.038 | [14] 0.086 | [15] 0 | [17] 0.033 | [18] 0.045 | [19] -0.05

Next part.

AIFM2 (UniProt Q9BRQ8)
inactive: [1] 0.013 | [2] 0 | [3] 0 | [4] -0.017 | [5] 0.019 | [6] -0.036 | [7] -0.026 | [8] 0.021 | [9] 0.011 | [10] -0.024 | [11] 0.002 | [12] -0.035 | [13] -0.058 | [14] -0.035 | [16] -0.017 | [17] 0.003 | [19] -0.069 | [20] 0.068

ALG10B (UniProt Q5I7T1)
inactive: [1] 0.01 | [2] 0.049 | [3] -0.023 | [4] 0.107 | [5] -0.013 | [6] 0.111 | [7] -0.037 | [8] -0.087 | [9] 0.092 | [10] -0.009 | [11] 0.092 | [12] -0.079 | [13] -0.012 | [14] 0.003 | [15] 0.031 | [16] 0.09 | [17] 0.096 | [18] -0.109 | [19] 0 | [20] -0.031

AKR1A1 (UniProt P14550)
inactive: [1] -0.002 | [2] -0.018 | [3] -0.019 | [4] 0.066 | [5] -0.094 | [6] 0.024 | [7] 0.025 | [8] 0.014 | [9] -0.008 | [10] 0.013 | [11] -0.015 | [12] 0.009 | [13] 0.02 | [14] 0.028 | [15] -0.002 | [16] -0.066 | [17] 0.027 | [18] 0.03 | [19] -0.068 | [20] 0.042

ANAPC1 (UniProt Q9H1A4)
inactive: [1] -0.011 | [2] 0.007 | [3] -0.013 | [4] -0.024 | [5] 0.029 | [6] -0.007 | [7] 0 | [8] 0.04 | [9] 0.003 | [10] -0.007 | [11] -0.031 | [12] -0.114 | [13] 0.025 | [14] 0.021 | [15] -0.026 | [16] 0.058 | [17] -0.013 | [18] -0.017 | [19] 0.016 | [20] 0.023

ALYREF (UniProt Q86V81)
inactive: [1] 0.026 | [2] 0.003 | [3] -0.163 | [4] -0.159 | [5] 0.178 | [6] -0.051 | [7] -0.188 | [8] 0.126 | [9] -0.001 | [10] -0.167 | [11] 0.269 | [12] 0.441 | [13] -0.123 | [14] -0.21 | [15] -0.042 | [16] 0.25 | [17] -0.089 | [18] -0.194 | [19] 0.257 | [20] 0.459

ALG1 (UniProt Q9BT22)
inactive: [1] -0.036 | [2] 0 | [3] -0.032 | [4] 0.002 | [5] -0.097 | [6] 0.014 | [7] 0.026 | [8] 0.009 | [9] -0.065 | [10] -0.013 | [11] -0.038 | [12] -0.01 | [13] -0.012 | [14] 0.084 | [15] -0.097 | [16] -0.078 | [17] 0.014 | [18] 0.024 | [19] -0.065 | [20] 0.006

AKAP12 (UniProt Q02952)
inactive: [1] -0.118 | [2] 0.015 | [3] -0.05 | [4] -0.164 | [5] 0.099 | [6] -0.087 | [7] 0.006 | [8] -0.081 | [9] 0.018 | [10] 0.056 | [11] 0.179 | [12] 0.056 | [13] 0.151 | [14] 0.013 | [15] 0.019 | [16] -0.035 | [17] -0.083 | [18] 0.024 | [19] -0.072 | [20] 0.03

ALDH1L2 (UniProt Q3SY69)
inactive: [1] -0.015 | [2] 0.025 | [3] 0.1 | [4] -0.087 | [5] -0.059 | [6] 0.061 | [7] -0.032 | [8] 0.028 | [9] -0.014 | [10] 0.117 | [11] 0.039 | [12] -0.001 | [13] 0.028 | [14] -0.003 | [15] -0.011 | [16] -0.025 | [17] -0.074 | [18] -0.055 | [19] -0.03 | [20] -0.103

AGTRAP (UniProt Q6RW13)
inactive: [1] -0.027 | [2] 0.097 | [3] 0.01 | [4] -0.108 | [5] 0 | [6] 0.075 | [7] 0.006 | [8] -0.148 | [9] -0.082 | [10] -0.023 | [11] 0.128 | [12] 0.048 | [13] -0.043 | [14] -0.084 | [15] -0.07 | [16] 0.07 | [17] 0.166 | [18] 0.012 | [19] -0.117 | [20] 0.108
